The other results are listed elsewhere or left out.
How the values were obtained:
Test in all cases: log2 fold change, soluble protein after heating vs DMSO (PISA); higher = thermal stabilisation; K562 cells, 10 uM, 30 min; active = over 0.2 and 3.5 SD of the protein, either way, in both replicates (recomputed)
[1] = compound: CS(=O)(=O)c1ccc(-c2cnc(N)c(C(=O)Nc3ccccc3)n2)cc1
Outline: (§1)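 Aliquots of K562 cells (2×10^6 cells/mL) treated with 10 μM compound for 30 min were heated for 3 min over 48°C-58°C. After pooling and extraction in PBS with 0.5% NP-40 at 4°C, soluble protein from a 21,000xg, 90 min spin was quantified by TMTpro 16plex LC-MS/MS with channel sums equalised. Thermal stability is expressed against control samples, from duplicates, as a log2 fold change.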

Amino acid sequences for entries named in this document (tags omitted). A change or cut given only in a name is not applied to a line headed by its entry.
UniProt Q96QE2: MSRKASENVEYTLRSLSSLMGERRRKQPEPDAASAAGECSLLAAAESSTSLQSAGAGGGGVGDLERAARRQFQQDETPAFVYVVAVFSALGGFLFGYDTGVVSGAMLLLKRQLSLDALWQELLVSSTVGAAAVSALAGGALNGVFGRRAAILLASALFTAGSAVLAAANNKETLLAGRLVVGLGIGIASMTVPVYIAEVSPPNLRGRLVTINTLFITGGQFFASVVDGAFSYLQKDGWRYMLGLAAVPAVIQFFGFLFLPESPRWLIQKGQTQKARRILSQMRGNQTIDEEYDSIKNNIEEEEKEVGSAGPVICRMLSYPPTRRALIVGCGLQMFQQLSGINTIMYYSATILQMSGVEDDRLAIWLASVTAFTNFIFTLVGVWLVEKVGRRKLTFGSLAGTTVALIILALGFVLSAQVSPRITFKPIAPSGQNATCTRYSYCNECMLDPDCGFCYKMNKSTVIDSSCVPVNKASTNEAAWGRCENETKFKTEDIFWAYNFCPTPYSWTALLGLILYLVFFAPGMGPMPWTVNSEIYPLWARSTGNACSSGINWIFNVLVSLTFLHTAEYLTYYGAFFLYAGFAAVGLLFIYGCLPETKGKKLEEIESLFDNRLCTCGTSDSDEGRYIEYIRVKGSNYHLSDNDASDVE
UniProt Q96GZ6: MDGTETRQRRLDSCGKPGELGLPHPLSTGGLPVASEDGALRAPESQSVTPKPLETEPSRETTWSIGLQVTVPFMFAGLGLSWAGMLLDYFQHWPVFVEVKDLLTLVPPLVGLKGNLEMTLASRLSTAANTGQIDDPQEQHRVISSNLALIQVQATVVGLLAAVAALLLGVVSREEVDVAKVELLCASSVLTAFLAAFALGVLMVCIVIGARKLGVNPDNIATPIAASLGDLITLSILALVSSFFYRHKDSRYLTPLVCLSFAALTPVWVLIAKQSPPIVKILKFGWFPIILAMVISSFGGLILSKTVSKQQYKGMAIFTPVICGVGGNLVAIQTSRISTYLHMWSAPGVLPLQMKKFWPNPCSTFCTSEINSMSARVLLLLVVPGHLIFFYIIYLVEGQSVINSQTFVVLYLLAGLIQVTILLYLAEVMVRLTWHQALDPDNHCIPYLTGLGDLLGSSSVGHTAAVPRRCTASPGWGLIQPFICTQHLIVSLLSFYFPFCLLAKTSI
UniProt Q6P1M0: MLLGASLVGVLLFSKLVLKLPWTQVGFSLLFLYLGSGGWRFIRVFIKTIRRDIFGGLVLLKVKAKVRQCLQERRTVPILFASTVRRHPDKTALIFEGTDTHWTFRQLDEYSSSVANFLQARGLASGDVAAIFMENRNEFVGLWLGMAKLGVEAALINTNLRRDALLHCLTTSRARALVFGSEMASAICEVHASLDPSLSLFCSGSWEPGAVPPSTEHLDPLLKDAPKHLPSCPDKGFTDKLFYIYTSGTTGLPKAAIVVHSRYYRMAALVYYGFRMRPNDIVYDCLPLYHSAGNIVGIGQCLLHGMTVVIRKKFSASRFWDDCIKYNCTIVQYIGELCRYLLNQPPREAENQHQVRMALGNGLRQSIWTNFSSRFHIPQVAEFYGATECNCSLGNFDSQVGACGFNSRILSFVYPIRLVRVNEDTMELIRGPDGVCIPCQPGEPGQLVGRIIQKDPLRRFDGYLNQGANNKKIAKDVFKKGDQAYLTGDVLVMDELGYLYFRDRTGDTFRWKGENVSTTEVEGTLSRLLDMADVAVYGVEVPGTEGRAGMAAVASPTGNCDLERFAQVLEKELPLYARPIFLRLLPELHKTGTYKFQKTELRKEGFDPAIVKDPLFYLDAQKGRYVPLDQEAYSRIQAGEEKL
UniProt Q86VD7: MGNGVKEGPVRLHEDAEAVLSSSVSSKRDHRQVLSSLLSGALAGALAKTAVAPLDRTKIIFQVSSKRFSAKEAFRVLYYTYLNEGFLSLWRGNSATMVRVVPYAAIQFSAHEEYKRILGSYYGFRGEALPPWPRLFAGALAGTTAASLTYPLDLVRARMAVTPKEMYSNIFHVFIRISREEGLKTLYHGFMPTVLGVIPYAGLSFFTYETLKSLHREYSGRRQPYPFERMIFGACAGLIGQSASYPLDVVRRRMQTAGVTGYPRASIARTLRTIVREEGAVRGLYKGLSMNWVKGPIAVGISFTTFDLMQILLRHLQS
UniProt Q9BZD2: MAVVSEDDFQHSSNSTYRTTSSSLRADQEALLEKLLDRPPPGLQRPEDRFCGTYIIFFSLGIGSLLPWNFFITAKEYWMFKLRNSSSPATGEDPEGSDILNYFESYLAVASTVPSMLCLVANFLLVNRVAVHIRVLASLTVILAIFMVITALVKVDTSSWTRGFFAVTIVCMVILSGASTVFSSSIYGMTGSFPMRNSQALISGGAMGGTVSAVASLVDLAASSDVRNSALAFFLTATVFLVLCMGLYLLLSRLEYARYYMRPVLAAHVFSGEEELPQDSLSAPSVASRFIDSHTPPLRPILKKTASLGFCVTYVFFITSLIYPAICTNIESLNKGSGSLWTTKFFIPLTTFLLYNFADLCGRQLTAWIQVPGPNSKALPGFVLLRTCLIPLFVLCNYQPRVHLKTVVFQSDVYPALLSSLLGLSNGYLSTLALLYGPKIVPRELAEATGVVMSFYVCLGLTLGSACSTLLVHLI
UniProt Q8IWA5: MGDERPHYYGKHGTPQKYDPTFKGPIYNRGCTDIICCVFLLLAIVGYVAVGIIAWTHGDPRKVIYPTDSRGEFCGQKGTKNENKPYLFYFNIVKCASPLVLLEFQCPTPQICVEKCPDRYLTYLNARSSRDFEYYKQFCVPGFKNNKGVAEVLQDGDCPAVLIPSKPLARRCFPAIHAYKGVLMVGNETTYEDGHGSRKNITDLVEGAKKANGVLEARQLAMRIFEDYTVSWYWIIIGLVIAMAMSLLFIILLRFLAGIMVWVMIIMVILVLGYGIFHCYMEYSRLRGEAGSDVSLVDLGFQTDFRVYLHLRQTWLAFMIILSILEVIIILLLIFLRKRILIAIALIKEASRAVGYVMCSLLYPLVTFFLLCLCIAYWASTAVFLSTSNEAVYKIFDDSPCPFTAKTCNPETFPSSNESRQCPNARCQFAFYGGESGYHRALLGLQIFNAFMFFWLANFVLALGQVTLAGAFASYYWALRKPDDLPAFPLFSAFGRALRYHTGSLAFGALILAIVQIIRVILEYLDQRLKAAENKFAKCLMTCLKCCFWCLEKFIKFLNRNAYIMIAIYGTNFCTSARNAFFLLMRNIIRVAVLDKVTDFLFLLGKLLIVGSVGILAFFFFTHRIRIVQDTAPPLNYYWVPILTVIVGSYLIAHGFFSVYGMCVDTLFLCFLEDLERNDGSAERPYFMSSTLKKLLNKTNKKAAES
UniProt Q8NEW0: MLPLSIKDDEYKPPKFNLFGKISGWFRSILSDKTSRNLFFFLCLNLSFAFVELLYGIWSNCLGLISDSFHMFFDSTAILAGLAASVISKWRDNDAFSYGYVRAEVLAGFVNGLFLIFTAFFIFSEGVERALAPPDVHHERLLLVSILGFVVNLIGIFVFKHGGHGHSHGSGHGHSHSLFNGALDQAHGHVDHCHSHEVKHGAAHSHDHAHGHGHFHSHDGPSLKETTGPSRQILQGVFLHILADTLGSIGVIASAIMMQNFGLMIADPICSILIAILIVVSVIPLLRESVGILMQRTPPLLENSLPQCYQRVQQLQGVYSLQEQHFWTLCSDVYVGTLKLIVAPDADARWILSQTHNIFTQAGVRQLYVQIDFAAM
UniProt Q9BRY0: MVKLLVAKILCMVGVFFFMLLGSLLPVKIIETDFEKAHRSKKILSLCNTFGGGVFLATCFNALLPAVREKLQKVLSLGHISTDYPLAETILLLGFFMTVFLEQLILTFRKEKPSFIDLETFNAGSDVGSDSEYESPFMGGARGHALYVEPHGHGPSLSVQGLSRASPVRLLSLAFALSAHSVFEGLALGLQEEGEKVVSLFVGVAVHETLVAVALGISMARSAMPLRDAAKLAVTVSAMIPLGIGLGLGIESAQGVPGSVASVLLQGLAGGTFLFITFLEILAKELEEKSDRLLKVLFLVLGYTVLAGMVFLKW
UniProt P78383: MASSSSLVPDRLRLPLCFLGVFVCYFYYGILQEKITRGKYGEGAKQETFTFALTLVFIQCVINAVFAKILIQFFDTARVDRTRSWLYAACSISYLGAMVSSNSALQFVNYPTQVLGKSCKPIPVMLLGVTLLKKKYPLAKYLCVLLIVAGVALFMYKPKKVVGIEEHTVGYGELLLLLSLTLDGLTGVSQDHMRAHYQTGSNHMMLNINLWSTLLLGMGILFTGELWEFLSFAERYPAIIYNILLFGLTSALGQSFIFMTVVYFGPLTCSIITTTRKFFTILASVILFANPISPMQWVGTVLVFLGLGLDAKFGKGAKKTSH
UniProt Q6P1K1: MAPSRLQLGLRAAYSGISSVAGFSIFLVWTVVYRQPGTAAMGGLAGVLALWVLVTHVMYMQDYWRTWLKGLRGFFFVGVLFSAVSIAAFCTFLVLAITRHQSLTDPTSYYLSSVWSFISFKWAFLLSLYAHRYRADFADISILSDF
UniProt Q6NT16: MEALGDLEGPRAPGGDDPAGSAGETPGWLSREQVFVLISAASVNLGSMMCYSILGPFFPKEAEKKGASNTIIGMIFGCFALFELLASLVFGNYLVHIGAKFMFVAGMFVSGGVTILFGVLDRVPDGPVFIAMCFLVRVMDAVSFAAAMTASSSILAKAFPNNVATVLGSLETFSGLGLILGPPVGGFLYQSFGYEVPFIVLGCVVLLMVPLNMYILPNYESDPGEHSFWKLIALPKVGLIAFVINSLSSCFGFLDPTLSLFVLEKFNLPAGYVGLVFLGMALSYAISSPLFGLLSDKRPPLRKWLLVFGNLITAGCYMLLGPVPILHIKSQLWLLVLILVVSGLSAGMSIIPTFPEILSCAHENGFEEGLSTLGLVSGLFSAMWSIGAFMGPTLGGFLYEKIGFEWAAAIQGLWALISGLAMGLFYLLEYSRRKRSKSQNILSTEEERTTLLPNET
UniProt P41440: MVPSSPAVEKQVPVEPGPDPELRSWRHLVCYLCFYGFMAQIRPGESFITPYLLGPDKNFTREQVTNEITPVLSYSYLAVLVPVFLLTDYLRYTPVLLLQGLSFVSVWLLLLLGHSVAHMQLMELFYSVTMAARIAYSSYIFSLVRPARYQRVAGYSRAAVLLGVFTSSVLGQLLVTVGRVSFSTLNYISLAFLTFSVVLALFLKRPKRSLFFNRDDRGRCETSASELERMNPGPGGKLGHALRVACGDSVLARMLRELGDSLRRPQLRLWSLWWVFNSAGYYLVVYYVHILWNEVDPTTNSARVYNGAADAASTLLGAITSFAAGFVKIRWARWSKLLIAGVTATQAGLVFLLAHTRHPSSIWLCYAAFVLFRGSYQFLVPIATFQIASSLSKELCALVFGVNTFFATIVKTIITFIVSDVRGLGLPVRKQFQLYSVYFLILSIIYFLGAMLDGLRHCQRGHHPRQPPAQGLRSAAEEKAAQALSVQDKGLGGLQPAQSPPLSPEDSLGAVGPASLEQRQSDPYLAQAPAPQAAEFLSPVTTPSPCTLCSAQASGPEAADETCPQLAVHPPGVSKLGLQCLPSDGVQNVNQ
UniProt Q96DW6: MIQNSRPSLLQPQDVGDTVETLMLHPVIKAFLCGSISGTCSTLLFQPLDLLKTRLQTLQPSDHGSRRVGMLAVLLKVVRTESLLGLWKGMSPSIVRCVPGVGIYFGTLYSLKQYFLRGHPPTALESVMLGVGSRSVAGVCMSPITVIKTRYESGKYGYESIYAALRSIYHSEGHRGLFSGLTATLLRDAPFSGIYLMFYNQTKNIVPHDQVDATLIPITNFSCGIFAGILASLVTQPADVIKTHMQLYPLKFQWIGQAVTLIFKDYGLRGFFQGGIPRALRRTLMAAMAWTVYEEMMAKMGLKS
UniProt O14975, whole entry, looked up: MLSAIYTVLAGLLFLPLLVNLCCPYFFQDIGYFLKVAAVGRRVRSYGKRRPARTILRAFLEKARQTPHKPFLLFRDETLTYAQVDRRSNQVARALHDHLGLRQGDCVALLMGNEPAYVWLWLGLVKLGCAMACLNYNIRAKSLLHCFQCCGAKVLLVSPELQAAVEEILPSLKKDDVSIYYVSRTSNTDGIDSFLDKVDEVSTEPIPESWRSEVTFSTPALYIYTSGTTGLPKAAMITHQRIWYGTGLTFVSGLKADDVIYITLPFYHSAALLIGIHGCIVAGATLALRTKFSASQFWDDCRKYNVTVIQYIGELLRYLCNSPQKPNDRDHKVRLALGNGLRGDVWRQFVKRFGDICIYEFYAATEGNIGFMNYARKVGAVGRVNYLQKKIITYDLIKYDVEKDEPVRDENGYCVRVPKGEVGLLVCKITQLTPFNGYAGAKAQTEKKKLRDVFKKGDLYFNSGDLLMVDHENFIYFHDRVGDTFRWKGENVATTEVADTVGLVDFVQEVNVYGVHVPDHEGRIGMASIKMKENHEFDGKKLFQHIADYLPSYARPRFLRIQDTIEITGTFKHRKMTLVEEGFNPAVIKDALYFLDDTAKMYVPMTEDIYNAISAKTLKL

[2] = compound: C[C@@H]1COCCN1C2=NC(=NC(=C2)C3(CC3)S(=O)(=O)C)C4=C5C=CNC5=CC=C4
Outline: as §1

[3] = compound: C[C@H](C1=CC=C(C=C1)C(=O)NC2=C3C=CNC3=NC=C2)N
Outline: as §1

duvelisib = compound: C[C@H](Nc1ncnc2nc[nH]c12)c1cc2cccc(Cl)c2c(=O)n1-c1ccccc1 [duvelisib]
Outline: as §1

gandotinib = compound: Cc1cc(Nc2cc(CN3CCOCC3)c3nc(C)c(Cc4ccc(Cl)cc4F)n3n2)n[nH]1 [gandotinib]
Outline: as §1

tozasertib = compound: Cc1cc(Nc2cc(N3CCN(C)CC3)nc(Sc3ccc(NC(=O)C4CC4)cc3)n2)n[nH]1 [tozasertib]
Outline: as §1

[4] = compound: Cc1cc(SCc2sc(-c3ccc(C(F)(F)F)cc3)nc2C)ccc1OCC(=O)O
Outline: as §1

ispinesib = compound: Cc1ccc(C(=O)N(CCCN)[C@@H](c2nc3cc(Cl)ccc3c(=O)n2Cc2ccccc2)C(C)C)cc1 [ispinesib]
Outline: as §1

bafetinib = compound: Cc1ccc(NC(=O)c2ccc(CN3CC[C@H](N(C)C)C3)c(C(F)(F)F)c2)cc1Nc1nccc(-c2cncnc2)n1 [bafetinib]
Outline: as §1

[5] = compound: Cc1cccc(CC(=O)N2CCc3c2ccc(-c2cn(C)c4ncnc(N)c24)c3F)n1
Outline: as §1

dasatinib = compound: Cc1nc(Nc2ncc(C(=O)Nc3c(C)cccc3Cl)s2)cc(N2CCN(CCO)CC2)n1 [dasatinib]
Outline: as §1

[6] = compound: Cn1cc(-c2ccc3c(c2)CCN3C(=O)Cc2cccc(C(F)(F)F)c2)c2c(N)ncnc21
Outline: as §1

[7] = compound: Cn1cc(-c2ccc3nnc(C(F)(F)c4ccc5ncccc5c4)n3n2)cn1
Outline: as §1

tipifarnib = compound: Cn1cncc1[C@@](N)(c1ccc(Cl)cc1)c1ccc2c(c1)c(-c1cccc(Cl)c1)cc(=O)n2C [tipifarnib]
Outline: as §1

crizotinib = compound: C[C@@H](Oc1cc(-c2cnn(C3CCNCC3)c2)cnc1N)c1c(Cl)ccc(F)c1Cl [crizotinib]
Outline: as §1

doramapimod = compound: Cc1ccc(-n2nc(C(C)(C)C)cc2NC(=O)Nc2ccc(OCCN3CCOCC3)c3ccccc23)cc1 [doramapimod]
Outline: as §1

nilotinib = compound: Cc1cn(-c2cc(NC(=O)c3ccc(C)c(Nc4nccc(-c5cccnc5)n4)c3)cc(C(F)(F)F)c2)cn1 [nilotinib]
Outline: as §1

[8] = compound: Cc1nc(Nc2n[nH]c3c2CN(C(=O)N[C@H](CN(C)C)c2ccccc2)C3(C)C)c2sccc2n1
Outline: as §1

[9] = compound: Cc1ncc(-c2ccnc(Nc3ccc(S(C)(=O)=O)cc3)n2)n1C(C)C
Outline: as §1

mubritinib = compound: FC(F)(F)c1ccc(/C=C/c2nc(COc3ccc(CCCCn4ccnn4)cc3)co2)cc1 [mubritinib]
Outline: as §1

Measured: log2 fold change

SLC2A13 (UniProt Q96QE2)
inactive: [1] -0.121 | [2] 0.093 | [3] -0.087 | duvelisib 0.051 | gandotinib 0.072 | tozasertib 0.056 | [4] -0.126 | ispinesib -0.182 | bafetinib -0.047 | [5] -0.089 | dasatinib 0.183 | [6] 0.056 | [7] -0.006 | tipifarnib 0.064

SLC17A5 (UniProt Q9NRA2)
inactive: [1] 0.062 | crizotinib -0.036 | doramapimod -0.037 | ispinesib -0.226 | [7] -0.055 | tipifarnib 0.169

SLC41A3 isoform 9 (UniProt Q96GZ6)
inactive: [1] -0.049 | crizotinib 0.011 | [2] 0.077 | gandotinib 0.035 | tozasertib -0.118 | doramapimod 0.012 | bafetinib -0.033 | [5] -0.017 | nilotinib 0.009 | [8] 0.022 | [9] 0.045 | mubritinib -0.079

SLC35F6 (UniProt Q8N357)
inactive: [1] -0.247 | [2] 0.021 | [3] 0.076 | [4] -0.219 | ispinesib -0.083 | bafetinib -0.208 | nilotinib -0.037 | [8] -0.13 | dasatinib 0.078 | [9] 0.143 | [6] 0.049 | [7] 0.052 | tipifarnib 0.01 | mubritinib 0.072

SLC27A4 (UniProt Q6P1M0)
active: mubritinib 0.598
inactive: [1] -0.008 | crizotinib 0.069 | [2] 0.059 | [3] -0.015 | gandotinib 0.122 | [4] 0.123 | doramapimod 0 | ispinesib -0.103 | bafetinib -0.026 | [5] 0.022 | nilotinib -0.098 | [8] -0.101 | dasatinib -0.113 | [9] 0.011 | [6] 0.003 | [7] 0.009 | tipifarnib 0.124

SLC12A9 (UniProt Q9BXP2)
inactive: [1] -0.071 | [2] -0.022 | [3] 0.016 | gandotinib -0.16 | [4] -0.074 | doramapimod -0.012 | bafetinib -0.088 | [5] 0.023 | nilotinib -0.069 | [8] 0.05 | dasatinib 0.057 | [9] -0.066 | [6] 0.008 | [7] -0.006 | tipifarnib 0.025 | mubritinib 0.001
active: crizotinib -0.315 | ispinesib -0.713

SLC25A42 (UniProt Q86VD7)
inactive: [1] -0.054 | crizotinib 0.028 | [2] 0.015 | [3] -0.055 | gandotinib 0.09 | [4] -0.003 | doramapimod -0.004 | ispinesib 0.054 | bafetinib -0.081 | [5] -0.069 | nilotinib 0.009 | [8] -0.024 | dasatinib -0.025 | [9] 0.048 | [6] -0.022 | [7] -0.049 | tipifarnib 0.017 | mubritinib 0.051

SLC41A1 (UniProt Q8IVJ1)
inactive: [1] -0.05 | crizotinib 0.075 | [2] -0.036 | gandotinib 0.032 | doramapimod -0.353 | ispinesib -0.089 | [5] 0.126 | nilotinib 0.025 | [8] -0.058 | [9] -0.051 | [7] 0.063 | tipifarnib -0.161 | mubritinib 0.002

SLC29A3 (UniProt Q9BZD2)
active: crizotinib -0.559 | ispinesib -1.02
inactive: [1] 0.014 | [2] -0.098 | [3] 0.078 | [4] 0.055 | doramapimod 0.015 | bafetinib -0.111 | nilotinib -0.055 | [8] 0.127 | dasatinib -0.059 | [9] 0.012 | [6] 0.167 | [7] 0.102 | tipifarnib 0.035 | mubritinib 0.005

SLC44A2 isoform 2 (UniProt Q8IWA5)
inactive: [1] 0.019 | crizotinib 0.113 | [2] 0.026 | [3] -0.123 | gandotinib -0.017 | [4] -0.046 | doramapimod 0.055 | ispinesib 0.069 | bafetinib 0.058 | [5] -0.053 | nilotinib 0.13 | [8] 0.008 | dasatinib 0.064 | [9] 0.068 | [6] 0.084 | [7] -0.076 | mubritinib 0.045

SLC30A7 (UniProt Q8NEW0)
inactive: [1] -0.01 | crizotinib 0.014 | [2] -0.022 | [3] -0.048 | [4] -0.007 | doramapimod -0.057 | ispinesib -0.016 | bafetinib -0.169 | [5] -0.094 | nilotinib -0.16 | [8] 0.052 | dasatinib 0.04 | [9] 0.003 | [6] 0.048 | [7] -0.026 | tipifarnib 0.023 | mubritinib 0.107
active: gandotinib -0.348

SLC39A3 (UniProt Q9BRY0)
inactive: [1] -0.025 | [2] 0.137 | [3] 0.029 | duvelisib 0.146 | gandotinib -0.071 | tozasertib 0.003 | [4] -0.102 | ispinesib -0.078 | bafetinib 0.017 | [5] 0.158 | nilotinib -0.022 | [8] -0.019 | dasatinib 0 | [9] 0.034 | [6] 0.002 | [7] 0.06 | tipifarnib 0.004 | mubritinib 0.002

SLC35A3 isoform 2 (UniProt Q9Y2D2)
inactive: [1] -0.088 | crizotinib -0.048 | [2] 0.08 | gandotinib -0.024 | doramapimod -0.054 | ispinesib 0.343 | bafetinib -0.024 | [5] -0.005 | nilotinib -0.134 | [8] 0.028 | [9] -0.121 | [7] -0.086 | tipifarnib 0 | mubritinib 0.029

2 records picked at random from the list so far, as already listed:
SLC30A7 (UniProt Q8NEW0)
inactive: [1] -0.01 | crizotinib 0.014 | [2] -0.022 | [3] -0.048 | [4] -0.007 | doramapimod -0.057 | ispinesib -0.016 | bafetinib -0.169 | [5] -0.094 | nilotinib -0.16 | [8] 0.052 | dasatinib 0.04 | [9] 0.003 | [6] 0.048 | [7] -0.026 | tipifarnib 0.023 | mubritinib 0.107
active: gandotinib -0.348

SLC39A3 (UniProt Q9BRY0)
inactive: [1] -0.025 | [2] 0.137 | [3] 0.029 | duvelisib 0.146 | gandotinib -0.071 | tozasertib 0.003 | [4] -0.102 | ispinesib -0.078 | bafetinib 0.017 | [5] 0.158 | nilotinib -0.022 | [8] -0.019 | dasatinib 0 | [9] 0.034 | [6] 0.002 | [7] 0.06 | tipifarnib 0.004 | mubritinib 0.002

(continued)

SLC35B1 isoform 2 (UniProt P78383)
inactive: [1] 0.049 | crizotinib -0.053 | [2] -0.042 | [4] 0 | doramapimod -0.061 | ispinesib -0.043 | bafetinib -0.018 | nilotinib -0.065 | [8] 0.052 | dasatinib 0.142 | [9] -0.097 | [6] -0.13 | [7] -0.172 | mubritinib 0.016
active: [3] -0.535

SLC48A1 (UniProt Q6P1K1)
inactive: [1] 0.062 | crizotinib -0.312 | doramapimod 0.071 | ispinesib -0.25 | bafetinib -0.021 | nilotinib 0.015 | [8] 0.075 | [9] -0.019 | [7] 0.044

SLC35F5 (UniProt Q8WV83)
inactive: [1] -0.115 | crizotinib -0.019 | [2] -0.309 | gandotinib -0.612 | doramapimod 0.028 | bafetinib -0.05 | [5] 0.1 | nilotinib -0.207 | [8] -0.062 | [9] -0.222 | tipifarnib 0.025

SLC12A5 (UniProt Q9H2X9)
inactive: [1] 0.089 | crizotinib 0.001 | [2] 0.028 | [3] 0.027 | [4] 0.083 | doramapimod 0.234 | bafetinib 0.009 | dasatinib -0.034 | [6] 0.002 | tipifarnib 0.117 | mubritinib -0.001

SLC18B1 (UniProt Q6NT16)
inactive: [1] 0.027 | [2] 0.06 | [3] -0.034 | gandotinib 0.092 | [4] -0.07 | doramapimod -0.002 | ispinesib -0.193 | bafetinib -0.071 | [5] 0 | nilotinib -0.024 | [8] 0.04 | dasatinib 0.063 | [9] -0.016 | [6] 0.034 | [7] 0.198 | tipifarnib -0.029 | mubritinib -0.018
active: crizotinib -0.404

SLC19A1 (UniProt P41440)
inactive: [1] -0.097 | crizotinib 0.086 | [2] 0.041 | [3] -0.088 | gandotinib -0.107 | [4] 0.012 | doramapimod -0.037 | ispinesib 0.083 | bafetinib 0.11 | [5] 0.039 | nilotinib 0.01 | [8] 0.012 | dasatinib 0.024 | [9] 0.026 | [6] 0.103 | [7] -0.026 | tipifarnib 0.051 | mubritinib 0.074

SLC25A38 (UniProt Q96DW6)
inactive: [1] 0.146 | crizotinib 0.105 | [2] 0.045 | [3] 0.002 | gandotinib -0.035 | [4] -0.058 | doramapimod 0.001 | ispinesib 0 | bafetinib -0.08 | [5] -0.03 | nilotinib -0.03 | [8] 0.023 | dasatinib 0.143 | [9] -0.114 | [6] 0.022 | [7] 0.019 | tipifarnib 0.043 | mubritinib 0.052

SLC27A2 (UniProt O14975)
inactive: crizotinib 0.046 | [2] -0.005 | [3] -0.031 | gandotinib 0.094 | [4] 0.108 | doramapimod 0.027 | ispinesib -0.056 | bafetinib 0.044 | [5] 0.005 | nilotinib 0.179 | [8] -0.104 | dasatinib -0.106 | [9] 0.025 | [6] 0.054 | [7] 0.073 | tipifarnib 0.187 | mubritinib -0.001
active: [1] 0.273

Source: the supplement of paper PMC10849652
